# Paper PMC9655874, “Analysis of Volatile Secondary Metabolites in Ocimum basilicum Cell Suspensions: Inhibition, In Silico Molecular Docking, and an ADMET Analysis against Proteolytic Enzymes of Rhynchophorus ferrugineus” (Plants, 2022)
# What was measured:
# R. ferrugineus adults = format: in vivo; details: value ± standard error
# Procedure: (§1) Cells were suspended in the methanolic extract at serially increasing concentrations for 40 days. To dilute the compounds, TritonX-100 (0.1%) was added to acetone after the chemicals were dissolved. Adults or larvae of R. ferrugineus were purchased. They were then cultured using long lengths of sugar cane stem. The extracts’ anti-larvae action was assessed by applying topically to larvae and keeping them at 4–5 °C for 5 min. Utilizing a manually controlled micro-applicator, each larva had extract injected into its dorsum in three separate 10 µL doses using a 50-ll micro-syringe from Hertfordshire, UK’s Burkard Manufacturing Co., Ltd. (MS-N50; Shizuoka, Japan’s Ito Corp.). Five larvae in a box with three replications were fed on portions of long sugarcane stem measuring 10 cm. […] The sugarcane stem’s ten-centimeter-long portions cut into equal longitudinal halves were used to measure the antifeedant activity against adults. Long sections of sugarcane stem with a surface area of approximately 32.2 cm^2 were dried in air at room temperature, assuming a dipping time of 10 s and an initial serial concentration of (10 mL). Each treated object remained in a plastic container. Each box included an additional pair (male and female). Each therapy was administered ten times. In total, 24-, 48-, 72-, and 96-h feeding observations were assessed.
# (§2) Statistics and probit analysis were performed using SPSS 25.0, as mentioned by Finney. To sum up, all numerical predictions of toxicity variables and findings were presented as the mean ± SE. We regressed mortality and translated the resulting dosage to an LC50 value (µg/mL). […] Enzyme activity data were analyzed using an ANOVA. Means were separated using the SNK (Student–Newman–Keuls) test, and deviations at the p ˂ 0.05 level were considered noteworthy.
# [1] = tested on: R. ferrugineus 4th larvae; test: Topical application (contact insecticide) to fourth instar larvae; format: in vivo, Rhynchophorus ferrugineus; details: value ± standard error
# Procedure: as §1, §2
SMILES,"Slope (probit), adult (R. ferrugineus adults)","Slope (probit), 4th larvae [1]"
"CC12CCC(CC1)C(C)(C)O2 [1,8-cineole]",2.69 ± 0.19,1.36 ± 0.18
C=C/C(C)=C/CC=C(C)C [(E)-β-ocimene],2.12 ± 0.23,1.12 ± 0.13
C=CCc1ccc(OC)cc1 [estragole],2.04 ± 0.22,1.08 ± 0.12
C=CCc1ccc(O)c(OC)c1 [eugenol],2.66 ± 0.20,1.34 ± 0.19
C=C1/C=C/[C@H](C(C)C)CC/C(C)=C/CC1 [germacrene D],2.48 ± 0.22,1.20 ± 0.17
C=CC(C)(O)CCC=C(C)C (centres unmarked) [linalool],2.71 ± 0.20,1.37 ± 0.18
CC(C)=CCC/C(C)=C\CO [nerol],2.51 ± 0.22,1.31 ± 0.18
C=C(C)C1CCC(C)C2=C(C1)C(C)CC2 (stereo not drawn) [α-guaiene],2.62 ± 0.21,1.24 ± 0.17
C=C1CCC2CC1C2(C)CCC=C(C)C (stereo not drawn) [β-bergamotene],2.76 ± 0.21,1.28 ± 0.16
C=C1CC/C=C(\C)CC[C@@H]2[C@@H]1CC2(C)C [β-caryophyllene],2.60 ± 0.21,1.22 ± 0.17
C=CC(=C)CCC=C(C)CCC=C(C)C [β-farnesene],2.73 ± 0.20,1.26 ± 0.17
C=C(C)C1CCC(C)(O)CC1 (stereo not drawn) [β-terpineol],1.94 ± 0.23,1.04 ± 0.11
CC1=CCC(C(C)C)=CC1 [γ-terpinene],1.97 ± 0.22,1.07 ± 0.14
